Results deposited as PubChem BioAssay AID1259308 (NCATS, 2017)
In all, the deposit lists about 59,000 reagents; this is a random part of them. Over the whole deposit, about 1,510 (2.6%) are marked active. 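Calls use total luciferase alone and ignore viability, so some active siRNAs may act by altering cell number.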 A number with no mark means an inactive call. Reagents against one gene are numbered here. Further read-outs or replicates are left out here. Reagent sequences are not shown.

- Assay: 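Genes whose loss raises luciferase production in HEK293 cells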 (primary screen)
- Cells: human HEK293 embryonic kidney cells stably expressing firefly luciferase (HEK-CMV-Luc2-Hygro)
- Knock-down reagent: single siRNA against human genes, 0.8 pmol siRNA per well
- Timing: 72 h
- Measured: 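Luciferase light (ONE-Glo) measured on one replicate plate set and viability (CellTiter-Glo) on the other, scaled to a negative control siRNA, with robust z-scores and luciferase per cell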
- Scale: total luciferase, z-score: higher = more reporter protein produced
- Rule for the call: 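An siRNA counts as active if its total luciferase robust z-score exceeds 3; genes with two or more such siRNAs out of three were retested with fresh siRNAs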
- Calls: active = raised luciferase; inactive = no rise

What is on record for GADD45GIP1 #1?
total luciferase, z-score: 0.342

What did the screen give for GADD45GIP1 #2?
total luciferase, z-score: 0.333

Which result is listed for GADD45GIP1 #3?
total luciferase, z-score: -1.41

How did the screen score TP53 #1?
total luciferase, z-score: -0.468

What is on record for TP53 #2?
total luciferase, z-score: -0.156

What did the screen give for TP53 #3?
total luciferase, z-score: 0.116

With CPO #1, what was measured?
total luciferase, z-score: -0.189

For CPO #2, what does the deposit list?
total luciferase, z-score: -0.106

For CPO #3, how do the results read?
total luciferase, z-score: -0.231

For BIRC6 #1, how do the results read?
total luciferase, z-score: 0.944

For BIRC6 #2, what was measured?
total luciferase, z-score: -0.755

Which result is listed for BIRC6 #3?
total luciferase, z-score: 0.228

For EHD4 #1, what does the deposit list?
total luciferase, z-score: 0.806

For EHD4 #2, what was measured?
total luciferase, z-score: 0.184

For EHD4 #3, how do the results read?
total luciferase, z-score: -0.286

What is on record for GASK1A #1?
total luciferase, z-score: -0.221

For GASK1A #2, what was measured?
total luciferase, z-score: 0.247

With GASK1A #3, how do the results read?
total luciferase, z-score: -1.47

What is on record for DSCAM #1?
total luciferase, z-score: -0.25

With DSCAM #2, what does the deposit list?
total luciferase, z-score: -0.416

Which result is listed for DSCAM #3?
total luciferase, z-score: -1.06
